According to article PMC9842591:
No constants are given. Whether binding was seen depends on the method and setting. Binding seen in cells or lysates may run through a third protein. Binding calls can cover weak binding; strength is not graded here. Tags and fused reporters may be left off the sequences shown.

Legend:
[1] = target: FLAG-tagged USP19-CY-C506A (active site mutant of the cytosolic USP19 isoform) (human); experiment: co-IP; HEK293T cells co-transfected with FLAG-tagged USP19 (ER or CY; wt or active-site mutant) and TβRI; lysate incubated with anti-Flag agarose beads 2 h at 4 °C, beads washed five times with TNE buffer; immunoblotting for TβRI
[2] = target: FLAG-tagged USP19-CY-wt (cytosolic isoform of ubiquitin-specific protease 19) (human); experiment: as above

B1: HA-tagged TGF-β type I receptor (TβRI) (receptor, UniProt P36897 34-503)
chain: LQCFCHLCTKDNFTCVTDGLCFVSVTETTDKVIHNSMCIAEIDLIPRDRPFVCAPSSKTGSVTTTYCCNQDHCNKIELPTTVKSSPGLGPVELAAVIAGPVCFVCISLMLMVYICHNRTVIHHRVPNEEDPSLDRPFISEGTTLKDLIYDMTTSGSGSGLPLLVQRTIARTIVLQESIGKGRFGEVWRGKWRGEEVAVKIFSSREERSWFREAEIYQTVMLRHENILGFIAADNKDNGTWTQLWLVSDYHEHGSLFDYLNRYTVTVEGMIKLALSTASGLAHLHMEIVGTQGKPAIAHRDLKSKNILVKKNGTCCIADLGLAVRHDSATDTIDIAPNHRVGTKRYMAPEVLDDSINMKHFESFKRADIYAMGLVFWEIARRCSIGGIHEDYQLPYYDLVPSDPSVEEMRKVVCEQKLRPNIPNRWQSCEALRVMAKIMRECWYANGAARLTALRIKKTLSQLSQQEGIKM
[1]
  binding: binds
[2]
  binding: binds
